Source: US6395773B1, “Anti-drug resistant strain agents and antichlamydia agents” (Japan Science and Technology Corporation, priority 1999, dated 2002)
Some entries share one result that the patent states for a list of compounds.

Tested on: all tested strains of Chlamydia
Assay type: cell-based

Compound: Cc1cc2c(o1)C(=O)c1ccccc1C2=O [FNQ3, 2-methylnaphtho[2,3-b]furan-4,9-dione]
- concentration that completely inhibits the growth: 0.25 to 1.0 µg/mL
